# Assay results from PubChem BioAssay AID1671190 (National Center for Advancing Translational Sciences (NCATS), 2021).
# Amino acid sequences for entries named in this document (tags omitted). A change or cut given only in a name is not applied to a line headed by its entry.
# UniProt P18054: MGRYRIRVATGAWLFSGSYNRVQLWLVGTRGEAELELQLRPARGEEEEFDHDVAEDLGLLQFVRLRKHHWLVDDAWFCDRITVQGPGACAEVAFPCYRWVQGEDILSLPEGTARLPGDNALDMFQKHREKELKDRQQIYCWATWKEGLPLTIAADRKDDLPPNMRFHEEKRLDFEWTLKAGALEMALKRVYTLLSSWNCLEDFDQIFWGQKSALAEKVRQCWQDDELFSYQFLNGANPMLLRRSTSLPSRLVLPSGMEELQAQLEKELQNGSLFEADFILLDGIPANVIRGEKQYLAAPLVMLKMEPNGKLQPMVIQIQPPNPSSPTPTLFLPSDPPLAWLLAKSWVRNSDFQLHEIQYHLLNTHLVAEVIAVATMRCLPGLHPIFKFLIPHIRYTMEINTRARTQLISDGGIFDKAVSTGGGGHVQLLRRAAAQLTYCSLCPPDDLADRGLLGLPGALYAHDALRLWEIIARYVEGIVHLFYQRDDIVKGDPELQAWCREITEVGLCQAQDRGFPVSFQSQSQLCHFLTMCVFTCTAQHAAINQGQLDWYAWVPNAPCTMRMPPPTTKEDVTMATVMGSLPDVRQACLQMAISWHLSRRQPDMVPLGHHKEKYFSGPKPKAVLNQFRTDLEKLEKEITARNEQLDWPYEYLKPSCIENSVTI
# Out of some 580,000 compounds screened, about 6,100 (1.1%) were called active. Inconclusive results, whose numbers are uncertain, are shown with a selection of clear calls. Calls come from the whole dose curve; as a rule, active = well fitted inhibition curve with a large enough effect; inconclusive = small, poorly fitted or top-dose-only effect, or another doubt; inactive = no such curve, though single readings can be large or run the other way. Potencies beside an inconclusive call are fits to weak or partial responses and may not hold up.
# Target: Polyunsaturated fatty acid lipoxygenase ALOX12 (Homo sapiens) (UniProt P18054)
# Assay: Primary qHTS assay for inhibitors of human arachidonate 12S-lipoxygenase (ALOX12): Round 2
# Settings: purified 12hLO, xylenol orange hydroperoxide absorbance; series mostly up to 108 µM
# Method in brief: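 Purified human 12hLO (150 nM final) in 25 mM Hepes, 0.01% Triton X-100, pH 7.0 was preincubated 15 min at room temperature with compound. Then 40 uM arachidonic acid was added, 30 min. Hydroperoxide was read by Fe-XO absorbance ratio 573/405 nm.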
# Potency is the fitted concentration of half-maximal effect.
row,SMILES,Potency
1,CCN(CC)C(=O)C1CCN(C(=O)Cn2ccc3ccc(Cl)cc32)CC1,"inconclusive: 100 µM [inhibitor, single point]"
2,Cc1ccsc1CN1CCc2c(sc3ncnc(N(C)C)c23)C1,"inconclusive: 25.1 µM [inhibitor, single point]"
3,O=C(NNC(=S)Nc1ccccc1)C(c1ccccc1)c1ccccc1,"inconclusive: 50.1 µM [inhibitor, partial curve, poor fit]"
4,O=c1c2sc3ccccc3c2[nH]c(=S)n1CCN1CCOCC1,"inconclusive: 28.2 µM [inhibitor, partial curve, poor fit]"
5,CC(C)c1ccc(CN2CCN(C(=O)c3cccc4ncccc34)CC2)cc1,inactive
6,O=C(Nc1ccc2oc(-c3ccccc3F)nc2c1)c1ccc(Cl)cc1,"inconclusive: 3.55 µM [inhibitor, full curve, poor fit]"
7,C=CCN1C=C2C(=O)C(C)(OC(=O)c3cccs3)C(=O)C=C2C=C1CCCC(=O)OC (stereo unspecified),inactive
8,COCCNC(=S)N(CCc1c(C)[nH]c2ccc(F)cc12)Cc1cccnc1,inactive
9,Brc1cccc(N=Cc2c3ccccc3cc3ccccc23)c1,"inconclusive: 22.4 µM [inhibitor, partial curve, poor fit]"
10,Cc1[nH]c2ccc(Cl)cc2c1CCN(Cc1cccs1)C(=S)NC(C)(C)C,"inconclusive: 35.5 µM [inhibitor, partial curve, poor fit]"
11,Cc1ccc(CSc2ccc3nnc(-c4ccccn4)n3n2)cc1,"inconclusive: 79.4 µM [inhibitor, partial curve, poor fit]"
12,CCCn1c(=O)c(C(=O)NCCc2ccccc2)c(O)c2ccccc21,"inconclusive: 1.12 µM [inhibitor, partial curve, poor fit]"
13,COC[C@]1(O)CCN(C(=O)CN2CCCC2)CC1(C)C,"inconclusive: 28.2 µM [inhibitor, partial curve, poor fit]"
14,COc1ccccc1NC(=O)Cn1cc(C(=O)c2ccncc2)c(=O)c2cc(C)ccc21,"inconclusive: 50.1 µM [inhibitor, partial curve, poor fit]"
15,Cn1c(/C=N/NC(=O)c2ccccc2Br)nc2ccccc21,inactive
16,COc1ccc(/C=C/c2cc(C(=O)O)c3ccccc3n2)cc1O,"inconclusive: 11.2 µM [inhibitor, partial curve, poor fit]"
17,O=C(CSC1CCCCC1)c1ccc(OC(F)F)cc1,"inconclusive: 39.8 µM [inhibitor, partial curve, poor fit]"
18,Cc1cc(Nc2cccc(C(=O)O)c2)n2ncnc2n1,"inconclusive: 31.6 µM [inhibitor, full curve, poor fit]"
19,COc1ccc(CCNS(=O)(=O)c2ccc(Br)cc2)cc1,"inconclusive: 112 µM [inhibitor, single point]"
20,CC(=O)c1ccc(NC(=S)NC2CCCC(C)C2C)cc1 (stereo unspecified),"inconclusive: 10 µM [inhibitor, full curve, poor fit]"
21,N#Cc1cc(-c2ccccc2)c[nH]c1=O,inactive
22,Cc1c(CC(=O)NC(C)C)c2c(n1Cc1ccccc1F)CCCC2=O,inactive

row,SMILES,Potency
1,O=C1C[C@@H](c2ccccc2)Oc2cc(O)cc(O)c21,"inconclusive: 7.08 µM [inhibitor, full curve, poor fit]"
2,CCCSc1nc2c(c(=O)[nH]1)C(c1ccncc1)C(C(=O)OC)=C(C)N2 (stereo unspecified),inactive
3,O=C(Nc1cccnc1Oc1ccccc1)c1cc(F)ccc1Br,inactive
4,O=c1cc(N2CCOCC2)oc2c(-c3ccccc3Oc3ccccc3)nccc12,"inconclusive: 39.8 µM [inhibitor, partial curve]"
5,O=C1CC(O)=C(Br)O1,"inconclusive: 28.2 µM [inhibitor, partial curve, poor fit]"
6,COC(=O)c1c(NC(=O)C2COc3ccccc3O2)sc2c1CCN(C(=O)OC)C2 (stereo unspecified),inactive
7,CCOc1ccc(CNC(=O)CN(C(=O)C2=C(C)OCCS2)c2ccc(Cl)cc2)cc1OC,inactive
8,O=C(NCCNC(=O)c1cc(-c2ccncc2)nc2ccccc12)c1ccco1,"inconclusive: 35.5 µM [inhibitor, single point]"
9,O=C1CSc2ccc(C(=O)NCCc3ccc(Cl)cc3Cl)cc2N1,"inconclusive: 89.1 µM [inhibitor, partial curve, poor fit]"
10,CCn1cc2c3c(cccc31)CN(C(=O)c1ccc(OC)c(F)c1)CC2,"inconclusive: 25.1 µM [inhibitor, partial curve]"
11,COc1cccc(C2CC(=O)Nc3ccsc32)c1OC (stereo unspecified),"inconclusive: 1.58 µM [inhibitor, full curve, poor fit]"
12,COc1cccc(NC(=O)N[C@H]2CCN(C(=O)c3cccn3C)[C@@H]2C(=O)N[C@@H](Cc2cccs2)C(N)=O)c1,inactive
13,CCN1C(=O)/C(=C\C=C2/C=CC=CN2CC)SC1=S,"inconclusive: 39.8 µM [inhibitor, partial curve, poor fit]"
14,CCCCCCCCN1c2ccccc2S(=O)c2ccccc21,"inconclusive: 141 µM [inhibitor, single point]"
15,Cc1cc(OCc2nn[nH]n2)c2c(C)c(C)c(=O)oc2c1,inactive
16,Cc1ccc(CCNC(=O)CS(=O)(=O)Cc2nc(-c3ccc(C)cc3)oc2C)cc1,inactive
17,O=C(NC1CCCC1)C1CCN(c2nccs2)CC1,"inconclusive: 89.1 µM [inhibitor, single point]"
18,O=C(CSc1ncnc2c1sc1cccc(F)c12)NCCN1CCCCCC1,"inconclusive: 35.5 µM [inhibitor, partial curve, poor fit]"
19,CC(C)NC(=S)N/N=C/c1ccc2c(c1)OCCO2,"inconclusive: 79.4 µM [inhibitor, single point]"
20,Cc1csc(C(C#N)C(=O)CSc2ccc3c(c2)OCCCO3)n1 (stereo unspecified),"inconclusive: 0.1 µM [inhibitor, full curve, poor fit]"
21,Cn1cccc1/C=C1\CCC/C(=C\c2cccn2C)C1=O,"inconclusive: 44.7 µM [inhibitor, partial curve, poor fit]"
22,CN1CCN(c2cc(-c3ccc4ccccc4c3)nc3ccnn23)CC1,inactive

row,SMILES,Potency
1,COC[C@H]1CCCN1[C@@H]1[C@H](O)[C@H](CO)O[C@@H]1CN(Cc1cccc(Cl)c1)Cc1cccc(Cl)c1,"inconclusive: 22.4 µM [inhibitor, single point]"
2,COC(=O)c1ccccc1NC1c2ccccc2C(=O)N1c1cccnc1 (stereo unspecified),inactive
3,CCOc1ccc2nc(SCC)[nH]c2c1,"inconclusive: 35.5 µM [inhibitor, partial curve, poor fit]"
4,Oc1ccccc1N1CCN(c2nc(-c3cccnc3)nc3ccccc23)CC1,"inconclusive: 35.5 µM [inhibitor, partial curve, poor fit]"
5,COc1ccc(-n2c(=O)c(-c3cc(F)cc(F)c3)nc3cnc(N(C)C)nc32)cc1,"inconclusive: 89.1 µM [inhibitor, single point]"
6,CCc1nnc(NC(=O)CSc2nnc(C)n2Cc2ccccc2)s1,"inconclusive: 2.82 µM [inhibitor, full curve, poor fit]"
7,CCOc1ccc(NC(=O)N2CCC3(CC2)Oc2ccccc2C(=O)N3Cc2ccccc2F)cc1,"inconclusive: 141 µM [inhibitor, partial curve, poor fit]"
8,COCCNC(=S)N/N=C(\C)c1cccc(C(F)(F)F)c1,"inconclusive: 25.1 µM [inhibitor, partial curve, poor fit]"
9,C#CCCc1cscc1/C=[N+](\[O-])c1ccc(C(=O)OCC)cc1,"inconclusive: 79.4 µM [inhibitor, partial curve, poor fit]"
10,Cc1[nH]c(=S)[nH]c(=O)c1Cc1ccccc1,"inconclusive: 44.7 µM [inhibitor, partial curve, poor fit]"
11,CCCCN1C(N)=NC[C@@H]1c1ccccc1,inactive
12,CCC(C)NC(=O)C(C)N1C(=O)COc2ccc(C(=O)COc3ccc(OC)cc3)cc21 (stereo unspecified),"inconclusive: 31.6 µM [inhibitor, single point]"
13,Cc1cc(C(=O)COC(=O)CC2Sc3ccccc3NC2=O)c(C)n1-c1cccc(C(F)(F)F)c1 (stereo unspecified),"inconclusive: 50.1 µM [inhibitor, partial curve, poor fit]"
14,O=C(NC[C@H]1OC[C@@H](NC2CCCCC2)[C@@H]1O)C1CCCC1,"inconclusive: 35.5 µM [inhibitor, single point]"
15,Cc1ccc(Cn2nnc3c(=O)n(Cc4nc(-c5cccc(C(F)(F)F)c5)no4)cnc32)cc1,"inconclusive: 31.6 µM [inhibitor, single point]"
16,CN(C)/C=C/C(=O)c1cnc(-c2ccc(Cl)cc2)s1,active: 31.6 µM
17,Cc1ccc(-c2nc3nc(C)cc(N4CCN(c5cccc(C)c5)C(C)C4)n3n2)cc1 (stereo unspecified),"inconclusive: 89.1 µM [inhibitor, partial curve, poor fit]"
18,O=C(NC1CCCCC1)C(c1ccco1)N(C(=O)c1csnn1)c1cccc(Cl)c1 (stereo unspecified),inactive
19,Cc1cccc(C)c1NC(=O)COC(=O)c1ccc2c(c1)NC(=O)C(C)S2 (stereo unspecified),"inconclusive: 5.62 µM [inhibitor, partial curve, poor fit]"
20,COc1ccccc1Nc1ncc(C(=O)N2CCN(Cc3ccc(OC)c(OC)c3OC)CC2)c2ccccc12,inactive
21,COC(=O)c1ccc(CSc2ccc3nnc(-c4cccc(F)c4)n3n2)o1,active: 28.2 µM
22,CCc1nc2c(OCc3cc(Cl)cc(Cl)c3)cccn2c1N(C)C(=O)CC(C)C,"inconclusive: 44.7 µM [inhibitor, partial curve, poor fit]"

# Already shown: entries from further up.
row,SMILES,Potency
14,O=C(NC[C@H]1OC[C@@H](NC2CCCCC2)[C@@H]1O)C1CCCC1,"inconclusive: 35.5 µM [inhibitor, single point]"
15,Cc1ccc(Cn2nnc3c(=O)n(Cc4nc(-c5cccc(C(F)(F)F)c5)no4)cnc32)cc1,"inconclusive: 31.6 µM [inhibitor, single point]"
16,CN(C)/C=C/C(=O)c1cnc(-c2ccc(Cl)cc2)s1,active: 31.6 µM
17,Cc1ccc(-c2nc3nc(C)cc(N4CCN(c5cccc(C)c5)C(C)C4)n3n2)cc1 (stereo unspecified),"inconclusive: 89.1 µM [inhibitor, partial curve, poor fit]"
18,O=C(NC1CCCCC1)C(c1ccco1)N(C(=O)c1csnn1)c1cccc(Cl)c1 (stereo unspecified),inactive
